This is an account of results in article PMC8262869.

The chains behind the UniProt entries cited, without tags or fusion partners.
UniProt Q56073: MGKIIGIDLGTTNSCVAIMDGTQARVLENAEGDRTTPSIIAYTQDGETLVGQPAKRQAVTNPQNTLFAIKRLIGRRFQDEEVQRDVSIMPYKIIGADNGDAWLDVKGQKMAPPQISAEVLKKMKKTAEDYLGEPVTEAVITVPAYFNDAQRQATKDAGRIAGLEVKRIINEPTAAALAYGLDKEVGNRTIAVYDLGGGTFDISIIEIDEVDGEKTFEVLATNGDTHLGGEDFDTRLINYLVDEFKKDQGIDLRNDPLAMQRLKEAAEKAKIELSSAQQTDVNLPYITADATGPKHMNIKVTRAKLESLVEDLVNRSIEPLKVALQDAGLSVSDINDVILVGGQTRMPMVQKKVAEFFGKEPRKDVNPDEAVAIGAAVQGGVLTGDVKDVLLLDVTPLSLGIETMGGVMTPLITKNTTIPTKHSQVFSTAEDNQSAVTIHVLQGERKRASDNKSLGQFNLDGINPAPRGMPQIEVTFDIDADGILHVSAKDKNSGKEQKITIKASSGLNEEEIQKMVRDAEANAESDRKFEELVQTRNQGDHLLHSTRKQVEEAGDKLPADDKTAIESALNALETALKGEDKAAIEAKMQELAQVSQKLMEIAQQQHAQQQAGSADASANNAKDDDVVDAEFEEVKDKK
UniProt P0A7Z7: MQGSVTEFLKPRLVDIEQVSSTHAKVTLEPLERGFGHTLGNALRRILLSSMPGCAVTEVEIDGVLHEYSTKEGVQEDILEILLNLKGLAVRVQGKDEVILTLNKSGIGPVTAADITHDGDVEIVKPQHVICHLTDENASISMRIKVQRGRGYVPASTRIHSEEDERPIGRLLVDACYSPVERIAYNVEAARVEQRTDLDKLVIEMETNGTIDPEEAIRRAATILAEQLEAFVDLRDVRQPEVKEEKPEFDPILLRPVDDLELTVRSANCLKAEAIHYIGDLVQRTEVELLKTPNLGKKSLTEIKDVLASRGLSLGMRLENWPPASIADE

Test [1] deals with T1, reduced GST-DksA (Salmonella enterica serovar Typhimurium) (UniProt P0A1G5).
T1 sequence: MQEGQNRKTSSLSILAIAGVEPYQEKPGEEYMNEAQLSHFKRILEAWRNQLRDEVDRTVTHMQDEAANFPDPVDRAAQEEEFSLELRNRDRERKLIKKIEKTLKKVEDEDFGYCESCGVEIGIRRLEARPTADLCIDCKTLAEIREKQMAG
As to the kind of experiment: pull-down; GST fusion (bait) on glutathione-Sepharose 4B beads, 50 mM Tris-HCl pH 7.5, 4°C, 2 h with C-terminally 6×His-tagged prey; wash 50 mM NaCl, elution 500 mM NaCl; anti-6×His immunoblot; both purified.

Test [2] addresses T2, T18-DksA (Salmonella enterica serovar Typhimurium) (UniProt P0A1G5).
T2 sequence: T1 sequence
Nature of the test: two-hybrid; bacterial adenylate cyclase two-hybrid system (Euromedex), pKT25 and pUT18C fusions cotransformed into E. coli BTH101; β-galactosidase activity (Miller units) at stationary phase after 18 h at 30°C.

These are yes or no findings as the source states them, for the method shown. Some results given as binding are weak or reduced against the parent protein; the word gives no strength. For some assays here: Where a sequence is shown, tags or fusion partners need not be part of it.

DnaK-6×His (from UniProt Q56073 1-638): in test [1], the binding entry is “no binding”.
With T25-RpoA (from UniProt P0A7Z7 1-329), the binding result in test [2] is listed as “binds”.
